Where a chain is given by its changes, count along the chain named. Numbers in names are those of the source. These are yes or no findings as the source states them, for the method shown. For part of these data: In cells and extracts the contact can be indirect. Some entries that bind do so weakly or less than the wild type. Tags and fused reporters may be left off the sequences shown.
Columns and labels:
[1] = target: T1, Gnd1^I366M-V5 (S. cerevisiae) (UniProt P38720); assay: non-reducing SDS-PAGE with immunoblot
T1 sequence: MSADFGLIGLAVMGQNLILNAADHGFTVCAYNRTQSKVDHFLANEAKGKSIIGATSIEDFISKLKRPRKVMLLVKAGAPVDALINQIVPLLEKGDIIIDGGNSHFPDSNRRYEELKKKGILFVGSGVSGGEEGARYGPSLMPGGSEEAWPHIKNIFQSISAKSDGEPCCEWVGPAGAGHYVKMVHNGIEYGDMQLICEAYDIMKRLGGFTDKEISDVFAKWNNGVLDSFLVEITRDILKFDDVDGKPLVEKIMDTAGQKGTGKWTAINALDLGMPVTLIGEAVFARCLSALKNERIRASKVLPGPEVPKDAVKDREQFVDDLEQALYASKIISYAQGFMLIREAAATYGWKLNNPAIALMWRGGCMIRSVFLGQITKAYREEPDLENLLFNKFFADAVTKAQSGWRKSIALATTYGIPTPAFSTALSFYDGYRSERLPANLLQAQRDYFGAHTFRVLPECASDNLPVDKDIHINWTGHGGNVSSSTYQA

[2] = target: T2, Tsa1^WT-HA (peroxiredoxin Tsa1, single C-terminal HA tag at the endogenous locus) (S. cerevisiae) (UniProt P34760); assay: non-reducing SDS-PAGE with immunoblot
T2 sequence: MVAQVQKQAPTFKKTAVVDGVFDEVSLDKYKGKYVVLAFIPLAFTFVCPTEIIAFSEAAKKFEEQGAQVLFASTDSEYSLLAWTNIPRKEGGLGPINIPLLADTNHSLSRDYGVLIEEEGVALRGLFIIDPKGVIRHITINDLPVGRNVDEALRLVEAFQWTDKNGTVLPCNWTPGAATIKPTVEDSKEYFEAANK

[3] = target: T3, Gnd1^I366R-V5 (S. cerevisiae) (UniProt P38720); assay: non-reducing SDS-PAGE with immunoblot
T3 sequence: T1 sequence with M366R

Ugp1-V5 (S. cerevisiae) = target: T4, Ugp1-V5 (S. cerevisiae) (UniProt P32861); assay: co-IP
T4 sequence: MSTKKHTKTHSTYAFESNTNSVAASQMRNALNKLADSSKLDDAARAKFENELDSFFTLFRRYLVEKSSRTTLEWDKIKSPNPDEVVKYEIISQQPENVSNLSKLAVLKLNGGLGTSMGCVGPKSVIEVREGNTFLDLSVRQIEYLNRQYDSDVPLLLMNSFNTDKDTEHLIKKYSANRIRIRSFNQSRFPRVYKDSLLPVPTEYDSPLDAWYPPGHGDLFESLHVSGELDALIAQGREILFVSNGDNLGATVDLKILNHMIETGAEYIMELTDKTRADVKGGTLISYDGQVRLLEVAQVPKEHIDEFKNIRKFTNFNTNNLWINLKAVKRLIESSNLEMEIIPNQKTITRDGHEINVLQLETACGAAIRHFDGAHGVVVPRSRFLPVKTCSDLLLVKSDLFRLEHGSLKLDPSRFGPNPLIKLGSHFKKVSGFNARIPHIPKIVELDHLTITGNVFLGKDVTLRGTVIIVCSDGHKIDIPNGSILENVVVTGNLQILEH

[4] = target: T5, Gnd1-V5 C365S mutant (S. cerevisiae) (UniProt P38720); assay: non-reducing SDS-PAGE with immunoblot
T5 sequence: T1 sequence with C365S, M366I

Measured: binding

B1: Tsa1^WT-HA (peroxiredoxin Tsa1, single C-terminal HA tag at the endogenous locus) (protein, UniProt P34760 1-196)
chain: T2 sequence
not listed: [4]
binds: all other assays above

B2: Tsa1^C171S-HA (resolving cysteine mutant) (protein, UniProt P34760 1-196)
chain: T2 sequence with C171S
binds: [4] | Ugp1-V5 (S. cerevisiae)

Source: article doi:10.1101/2023.12.13.571451 (bioRxiv, 2023)
